{"source": "PubChem BioAssay AID504804 (Drosophila RNAi Screening Center, 2011)", "purpose": "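Fly genes whose loss lessens doxorubicin-driven cell death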 (primary screen)", "system": "Drosophila Kc cells", "knock-down reagent": "long dsRNA against Drosophila genes, 0.5 µg dsRNA per well", "time to read-out": "96 h (48 h knock-down, then 48 h drug)", "challenge": "doxorubicin 5 µg/ml for 48 h, added 48 h after dsRNA", "measurement": "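Luminescent ATP counts per replicate, not normalised, reflecting viable cells after 48 h dsRNA knock-down followed by 48 h of 5 µg/ml doxorubicin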", "reading the numbers": "raw ATP luminescence: higher = more viable cells, protection from doxorubicin", "call rule": "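Active when both duplicate wells lie at least 2 SD above the plate mean and protection is confirmed by rescreening and independent dsRNAs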", "note": "In all, the deposit lists about 19,000 reagents; this is an unselected part of those with a known target gene and a result. Over the whole deposit, 47 (0.25%) are marked active. 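Signals are raw, not normalised; exact z-scores behind calls not deposited; actives needed confirmation, so some wells reaching 2 SD are inactive.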 Entries without a mark were called inactive."}
{"target": "CG12523", "amplicon": "DRSC09895", "raw ATP luminescence, replicate 1": 82680, "raw ATP luminescence, replicate 2": 82947}
{"target": "dpr18", "amplicon": "DRSC19606", "raw ATP luminescence, replicate 1": 4.00e5, "raw ATP luminescence, replicate 2": 3.43e5}
{"target": "CG14882", "amplicon": "DRSC15006", "raw ATP luminescence, replicate 1": 46480, "raw ATP luminescence, replicate 2": 52787}
{"target": "Nagk", "amplicon": "DRSC15994", "raw ATP luminescence, replicate 1": 37843, "raw ATP luminescence, replicate 2": 22513}
{"target": "CG7341", "amplicon": "DRSC10818", "raw ATP luminescence, replicate 1": 35020, "raw ATP luminescence, replicate 2": 32793}
{"target": "Lcp65Ac", "amplicon": "DRSC11210", "raw ATP luminescence, replicate 1": 90817, "raw ATP luminescence, replicate 2": 82427}
{"target": "CG33296", "amplicon": "DRSC00998", "raw ATP luminescence, replicate 1": 2.81e5, "raw ATP luminescence, replicate 2": 2.99e5}
{"target": "Gycbeta100B", "amplicon": "DRSC14039", "raw ATP luminescence, replicate 1": 1.91e5, "raw ATP luminescence, replicate 2": 1.99e5}
{"target": "Gycbeta100B", "amplicon": "DRSC14040", "raw ATP luminescence, replicate 1": 2.32e5, "raw ATP luminescence, replicate 2": 2.15e5}
{"target": "CG14053", "amplicon": "DRSC17908", "raw ATP luminescence, replicate 1": 45820, "raw ATP luminescence, replicate 2": 62780}
{"target": "rdgC", "amplicon": "DRSC11387", "raw ATP luminescence, replicate 1": 51927, "raw ATP luminescence, replicate 2": 54200}
{"target": "CG11211", "amplicon": "DRSC04851", "raw ATP luminescence, replicate 1": 36410, "raw ATP luminescence, replicate 2": 49757}
{"target": "Ski6", "amplicon": "DRSC02491", "raw ATP luminescence, replicate 1": 50480, "raw ATP luminescence, replicate 2": 65880}
{"target": "COX4", "amplicon": "DRSC02091", "raw ATP luminescence, replicate 1": 81080, "raw ATP luminescence, replicate 2": 62273}
{"target": "CG16781", "amplicon": "DRSC18117", "raw ATP luminescence, replicate 1": 56360, "raw ATP luminescence, replicate 2": 44740}
{"target": "Hsp67Ba", "amplicon": "DRSC11191", "raw ATP luminescence, replicate 1": 75123, "raw ATP luminescence, replicate 2": 62697}
{"target": "wb", "amplicon": "DRSC01375", "raw ATP luminescence, replicate 1": 61620, "raw ATP luminescence, replicate 2": 68670}
{"target": "wb", "amplicon": "DRSC03634", "raw ATP luminescence, replicate 1": 68487, "raw ATP luminescence, replicate 2": 78897}
{"target": "Sr-CIV", "amplicon": "DRSC00575", "raw ATP luminescence, replicate 1": 30820, "raw ATP luminescence, replicate 2": 46523}
{"target": "mim", "amplicon": "DRSC05013", "raw ATP luminescence, replicate 1": 19587, "raw ATP luminescence, replicate 2": 32167}
{"target": "CG5916", "amplicon": "DRSC15917", "raw ATP luminescence, replicate 1": 41823, "raw ATP luminescence, replicate 2": 64697}
{"target": "CG17097", "amplicon": "DRSC02569", "raw ATP luminescence, replicate 1": 46400, "raw ATP luminescence, replicate 2": 83130}
{"target": "Swim", "amplicon": "DRSC04334", "raw ATP luminescence, replicate 1": 61743, "raw ATP luminescence, replicate 2": 61380}
{"target": "CG13622", "amplicon": "DRSC14624", "raw ATP luminescence, replicate 1": 58580, "raw ATP luminescence, replicate 2": 60450}
{"target": "CG5662", "amplicon": "DRSC19957", "raw ATP luminescence, replicate 1": 1.36e5, "raw ATP luminescence, replicate 2": 1.85e5}
{"target": "mael", "amplicon": "DRSC11894", "raw ATP luminescence, replicate 1": 38033, "raw ATP luminescence, replicate 2": 31193}
{"target": "CG5346", "amplicon": "DRSC15778", "raw ATP luminescence, replicate 1": 19630, "raw ATP luminescence, replicate 2": 18130}
{"target": "CG10584", "amplicon": "DRSC11624", "raw ATP luminescence, replicate 1": 76763, "raw ATP luminescence, replicate 2": 62803}

Targets above whose target name begins with G or g (2):
{"target": "Gycbeta100B", "amplicon": "DRSC14039", "raw ATP luminescence, replicate 1": 1.91e5, "raw ATP luminescence, replicate 2": 1.99e5}
{"target": "Gycbeta100B", "amplicon": "DRSC14040", "raw ATP luminescence, replicate 1": 2.32e5, "raw ATP luminescence, replicate 2": 2.15e5}
